In US20260265267A1, “NOVEL COMPOUNDS WITH MTORC2-INHIBITORY ACTIVITY AND USES THEREOF” (Aliad Biopharma, priority 2023, published 2026):

Assays:
Assay type in all cases: in vivo
[1] = tested on: 5×FAD Alzheimer's disease model mice; experiment: Morris water maze test in 5×FAD mice (spatial perceptive ability); conditions: 1 mg/kg, 2 weeks
Protocol: (§1) In order to evaluate the efficacy of HN2210, HN2213, and HN2313 on Alzheimer's disease-related symptoms, specifically regarding 1) memory and cognitive impairment, 2) amyloid plaques, 3) neurofibrillary tangles (NFTs), and 4) brain inflammation, an in vivo efficacy assessment of HN2210, HN2213 and HN2313 was conducted using 5×FAD Alzheimer's disease model mice. The 5×FAD mice were purchased from Jackson Lab, USA (Cat #034840-JAX) and crossed once with C57bl6 mice to produce F1 heterozygous offspring (Het). The compound was administered via intraperitoneal injection to 6-month-old 5×FAD Het mice, followed by behavioral testing. The normal control mice, which were littermates of the 5×FAD Het mice, were aged to 6 months and received DMSO injection at the same volume. […]
Specifically, a 50 cm deep water tank filled with water (25.0±1.0° C.) was divided into four equal quadrants, and a platform (12 cm diameter) was placed 3 mm below the water surface in the center of one quadrant. […] The following day, the platform was removed, and the time the experimental animal spent in the target quadrant was measured (probe trial). Videos were recorded and analyzed using the Ethovision video tracking system (Noldus Information Technology, Wageningen, Netherlands). […]

[2] = tested on: 5×FAD Alzheimer's disease model mice; experiment: Passive avoidance test in 5×FAD mice (long-term memory); conditions: 1 mg/kg, 2 weeks (FIG. 7)
Protocol: as §1
Specifically, to mice trained to avoid bright light three times daily, an electric foot shock (1 mA, 300 g) was applied for 3 seconds in a dark room at the same time on the next day. After 24 hours, the mice were placed again in the same room, and the avoidance response by light, that is, the time taken to move from the bright room to the dark room was measured. At 24 hours after habituation training, the mice were placed back into the bright room, and the latency time for entering the dark room was recorded over a period of 720 seconds. […]

[3] = tested on: 5×FAD Alzheimer's disease model mice; experiment: Y-maze test in 5×FAD mice (short-term memory); conditions: 1 mg/kg, intraperitoneal, 2 weeks
Protocol: as §1
Specifically, the Y-maze test was performed using a Y-shaped structure maze made of black acrylic with each arm at a […], and light and a camera were installed on the ceiling, and we measured the number of entries for white mice to freely enter each arm while the surroundings were covered with a curtain. […] When all four paws of a mice entered an arm, it was considered as fully entered, and the number of entries into each arm without repetition was recorded. The number of entries into each of the three different arms was divided by the total number of entries into all arms minus 2, and expressed as a percentage. […]

## COc1cc2c(cc1OC)C(=O)C(CC1CCN(Cc3ccccc3)CC1)C2 (stereo not shown) [donepezil, reference compound]
[1]
  Morris water maze number of target crossings, effect: did not result in significant increases
  Morris water maze time spent in the target quadrant, effect: did not result in significant increases
[2]
  passive avoidance latency time, % of the normal control level: about 38%
[3]
  Y-maze % alternation, effect: did not result in significant increase
